Results are given in words; binding and its absence hold for the method and conditions named. In cells and extracts the contact can be indirect. Here binding means that the protein was enriched with, or labelled near, the bait; the list need not be complete.
Biological target: GFP-Cw9a(1-52) (S. pombe (natural isolate CBS5557))
Assay: affinity purification with mass spectrometry; GFP-Cw9a(1-52) purified from S. pombe lysate on GFP-Trap agarose beads, 2 h at 4 °C; co-purified proteins identified by mass spectrometry

Amino acid sequences for entries named in this document (tags omitted).
UniProt Q92462: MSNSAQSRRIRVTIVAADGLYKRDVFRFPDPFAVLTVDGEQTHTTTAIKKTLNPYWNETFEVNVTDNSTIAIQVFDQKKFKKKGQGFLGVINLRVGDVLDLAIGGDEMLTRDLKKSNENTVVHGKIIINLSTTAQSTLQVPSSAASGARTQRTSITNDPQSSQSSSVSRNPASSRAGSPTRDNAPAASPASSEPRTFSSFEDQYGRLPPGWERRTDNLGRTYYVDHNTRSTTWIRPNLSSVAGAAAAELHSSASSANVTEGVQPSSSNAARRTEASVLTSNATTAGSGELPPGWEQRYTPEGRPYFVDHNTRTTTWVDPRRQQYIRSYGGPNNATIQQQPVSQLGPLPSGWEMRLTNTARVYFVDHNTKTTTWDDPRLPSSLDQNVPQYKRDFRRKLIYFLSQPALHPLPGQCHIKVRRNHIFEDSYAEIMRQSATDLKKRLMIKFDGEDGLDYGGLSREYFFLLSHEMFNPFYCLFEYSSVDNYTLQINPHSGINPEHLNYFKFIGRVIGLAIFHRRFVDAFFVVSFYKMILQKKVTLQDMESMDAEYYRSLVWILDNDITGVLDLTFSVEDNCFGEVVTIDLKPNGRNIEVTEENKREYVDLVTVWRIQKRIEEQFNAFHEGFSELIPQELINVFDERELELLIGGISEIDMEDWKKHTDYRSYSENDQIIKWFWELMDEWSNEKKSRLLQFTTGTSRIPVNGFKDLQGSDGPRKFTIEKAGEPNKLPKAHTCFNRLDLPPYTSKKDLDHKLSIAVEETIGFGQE

Pub1 (from UniProt Q92462 1-767) (enzyme)
binding: binds
